Laboratory results taken from patent EP4775595A1.
These are yes or no findings as the source states them, for the method shown. Some entries that bind do so weakly or less than the wild type.

Target: hTSHR-ECD-avi-his (human TSHR extracellular region, 6 amino acid mutations) (human)
Test: phage library screening and affinity determination

B1: CB16 (VHH)
VHH: EVQLVESGGGPVQAGGSLRLSCAGPGYTSSCMGWFRQAPGKERTGVAAIYIGGRGTDYADSVKGRFTISQDNAKNTLYLQMNSLKPEDTAMYYCWAGIEYDCYSGHWRDWAFSRERGFWGQGTQVTVSS
- binding: binds
